PubChem BioAssay AID1224828 – NIAID – 2016

Purpose: 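Regulators linking TLR4 signalling to p65 nuclear translocation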 (primary screen)
System: mouse RAW264.7 G9 macrophage reporter cells (GFP-p65, Tnf promoter-mCherry)
Reagent: siRNA pool against mouse genes, 100 nM
Timing: 2 days siRNA transfection, then 40 min LPS before fixation
Conditions: LPS (Salmonella minnesota R595) at 10 ng/ml
Read-out: 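Imaged p65 nuclear translocation ratio, normalised to the plate median, converted to robust z-scores and averaged across two replicates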
Direction: p65 translocation robust z-score: higher = more nuclear NF-kappaB p65 after LPS than the plate median; nuclear/cytoplasmic p65 ratio: higher = more nuclear NF-kappaB p65
Rule for the call: 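Called active when z exceeds 3.3 or falls under -1.56 (median of Tlr4 controls), giving activity score of at least 50; no calls for control wells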
Meaning of the calls: active = hit (p65 shift raised or lowered); inactive = no clear change
Here is one part, drawn at random, of about 17,000 deposited reagents. 762 of them (4.5%) were called active. 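Active calls include both raised and lowered p65 entry, mostly lowered; wells with fewer than 50 cells lack a z-score.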 The raw values are shown without normalisation. Entries without a mark were called inactive. Reagent sequences are not shown.

gene knocked down	p65 translocation robust z-score	nuclear/cytoplasmic p65 ratio, rep 1	nuclear/cytoplasmic p65 ratio, rep 2	low cell count flag
Iars1 (GeneID 105148)	-0.31	1.55	1.35	enough cells to score
Odf4 (GeneID 252868)	-0.44	1.64	1.47	enough cells to score
Tmed3 (GeneID 66111)		1.31	1.44	fewer than 50 cells per well; well left out of scoring
Pawr (GeneID 114774)	-1.91 (active)	1.23	1.12	enough cells to score
Mbp (GeneID 17196)	0.3	1.48	1.36	enough cells to score
Nxph4 (GeneID 104080)	-0.73	1.61	1.58	enough cells to score
Dr1 (GeneID 13486)	-0.17	1.46	1.35	enough cells to score
Cd300c (GeneID 387565)	-1.75 (active)	1.19	1.19	enough cells to score
Vmn1r53 (GeneID 113853)	-0.19	1.37	1.26	enough cells to score
Slc1a2 (GeneID 20511)	-0.04	1.32	1.25	enough cells to score
Zfand6 (GeneID 65098)		1.8	1.64	fewer than 50 cells per well; well left out of scoring
Gng8 (GeneID 14709)	1.69	1.91	1.78	enough cells to score
A730013G03Rik (GeneID 320952)	1.09	1.63	1.56	enough cells to score
Rras2 (GeneID 66922)	-0.66	1.43	1.65	enough cells to score
Tmod1 (GeneID 21916)		1.42	1.06	fewer than 50 cells per well; well left out of scoring
Zc3hc1 (GeneID 232679)	-1.38	1.5	1.32	enough cells to score
Cacng2 (GeneID 12300)	-0.08	1.62	1.73	enough cells to score
Trim65 (GeneID 338364)		1.25	1.17	fewer than 50 cells per well; well left out of scoring
Rps6kl1 (GeneID 238323)	-0.49	1.58	1.31	enough cells to score
Ik (GeneID 24010)	-0.79	1.34	1.27	enough cells to score
B4galnt1 (GeneID 14421)	1.37	1.51	1.64	enough cells to score
Plk2 (GeneID 20620)	1.06	1.38	1.51	enough cells to score
Esrp1 (GeneID 207920)	0.48	1.67	1.37	enough cells to score
Tmed1 (GeneID 17083)	-1.36	1.29	1.21	enough cells to score
Epb41l3 (GeneID 13823)	-0.39	1.58	1.37	enough cells to score
Pfdn4 (GeneID 109054)	-0.03	1.46	1.39	enough cells to score
Or2b2b (GeneID 258536)	0.76	1.66	1.66	enough cells to score
Rnh1 (GeneID 107702)	-0.86	1.43	1.36	enough cells to score
Sidt2 (GeneID 214597)	1	1.71	2.03	enough cells to score
Rps3 (GeneID 27050)	-2.05 (active)	1.23	1.17	enough cells to score
Tgfbrap1 (GeneID 73122)	1.25	1.64	1.95	enough cells to score
Nol12 (GeneID 97961)	-0.49	1.47	1.75	enough cells to score
Gstt2 (GeneID 14872)	-0.96	1.18	1.37	enough cells to score
Rpl22l1 (GeneID 68028)		1.09	1.18	fewer than 50 cells per well; well left out of scoring
Or8b47 (GeneID 258873)		1.37	1.35	fewer than 50 cells per well; well left out of scoring
Arhgap18 (GeneID 73910)	0.8	1.73	1.61	enough cells to score
B9d2 (GeneID 232987)	-0.07	1.55	1.85	enough cells to score
Rabep2 (GeneID 70314)	-0.94	1.25	1.11	enough cells to score
Luc7l (GeneID 66978)	-1.49	1.59	1.24	enough cells to score
Tecr (GeneID 106529)	0.33	1.6	1.6	enough cells to score
Tbxas1 (GeneID 21391)	1.28	1.53	1.7	enough cells to score
Zfp637 (GeneID 232337)	-1.2	1.69	1.23	enough cells to score
Rnf113a1 (GeneID 69942)		1.3	1.44	fewer than 50 cells per well; well left out of scoring
Rsrp1 (GeneID 27981)	-2.59 (active)	1.06	1.3	enough cells to score
Il27ra (GeneID 50931)	2.02	1.62	1.76	enough cells to score
Lyve1 (GeneID 114332)	0.28	1.39	1.33	enough cells to score
R74862 (GeneID 97423)	0.33	1.41	1.27	enough cells to score
Tmem9b (GeneID 56786)		1.26	1.37	fewer than 50 cells per well; well left out of scoring
Stfa2l1 (GeneID 268885)	0.15	1.75	1.42	enough cells to score
Sar1a (GeneID 20224)		1.47	1.18	fewer than 50 cells per well; well left out of scoring
Cdo1 (GeneID 12583)	-0.41	1.54	1.71	enough cells to score
Nhlh1 (GeneID 18071)	-1.35	1.25	1.25	enough cells to score
Acbd3 (GeneID 170760)	-1.08	1.36	1.61	enough cells to score
Ccn3 (GeneID 18133)	1.17	1.41	1.55	enough cells to score
Glp1r (GeneID 14652)	1.17	1.63	1.79	enough cells to score
4833444G19Rik (GeneID 320047)		1.35	1.26	fewer than 50 cells per well; well left out of scoring
Cldn10 (GeneID 58187)	1.53	1.7	1.55	enough cells to score
Sgce (GeneID 20392)	-0.19	1.48	1.57	enough cells to score
Dctn1 (GeneID 13191)	-0.76	1.4	1.24	enough cells to score
